Laboratory results taken from PubChem BioAssay AID1117319 (Southern Research Institute, 2015).
Values joined by “and” are separate entries in the source; they are usually repeats but may differ in a detail not shown here. Equal entries are not always repeated. Hit rate of the full screen: of about 260,000 compounds, about 1,500 (0.58%) were called active. The inconclusive results got no clear call from the source; some entries with a clear call stand among them for comparison.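 The calls were made as follows: active = inhibition above a set limit at one or more doses, reproduced on every date tested; inconclusive = results disagree between test dates, or hit never tested in dose response; inactive = the rest.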

The chains behind the UniProt entries cited, without tags or fusion partners. Where a name states a change or a piece, a line headed by the entry shows the natural chain unless it says otherwise.
UniProt P69720: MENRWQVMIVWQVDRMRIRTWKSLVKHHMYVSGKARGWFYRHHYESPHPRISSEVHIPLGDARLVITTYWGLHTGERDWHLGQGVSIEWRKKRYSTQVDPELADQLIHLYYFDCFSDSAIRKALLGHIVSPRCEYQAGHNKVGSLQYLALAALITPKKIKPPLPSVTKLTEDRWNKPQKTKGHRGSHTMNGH
UniProt P69721: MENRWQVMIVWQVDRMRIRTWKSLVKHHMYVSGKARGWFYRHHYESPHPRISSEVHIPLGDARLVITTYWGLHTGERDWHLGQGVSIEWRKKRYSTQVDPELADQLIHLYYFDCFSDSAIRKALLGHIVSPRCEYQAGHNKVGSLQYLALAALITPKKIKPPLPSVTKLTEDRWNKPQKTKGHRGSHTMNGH
UniProt P69722: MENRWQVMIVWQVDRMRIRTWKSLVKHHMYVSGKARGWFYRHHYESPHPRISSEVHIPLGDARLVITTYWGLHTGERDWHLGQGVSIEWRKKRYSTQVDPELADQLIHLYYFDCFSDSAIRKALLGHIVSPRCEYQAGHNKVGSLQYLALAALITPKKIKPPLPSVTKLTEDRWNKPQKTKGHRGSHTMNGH
UniProt P69723: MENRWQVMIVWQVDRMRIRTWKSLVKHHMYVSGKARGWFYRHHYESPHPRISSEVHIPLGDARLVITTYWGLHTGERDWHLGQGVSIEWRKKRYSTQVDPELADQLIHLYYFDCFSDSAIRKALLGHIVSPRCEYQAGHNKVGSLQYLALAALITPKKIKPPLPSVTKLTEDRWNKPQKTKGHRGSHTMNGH
UniProt Q9HC16: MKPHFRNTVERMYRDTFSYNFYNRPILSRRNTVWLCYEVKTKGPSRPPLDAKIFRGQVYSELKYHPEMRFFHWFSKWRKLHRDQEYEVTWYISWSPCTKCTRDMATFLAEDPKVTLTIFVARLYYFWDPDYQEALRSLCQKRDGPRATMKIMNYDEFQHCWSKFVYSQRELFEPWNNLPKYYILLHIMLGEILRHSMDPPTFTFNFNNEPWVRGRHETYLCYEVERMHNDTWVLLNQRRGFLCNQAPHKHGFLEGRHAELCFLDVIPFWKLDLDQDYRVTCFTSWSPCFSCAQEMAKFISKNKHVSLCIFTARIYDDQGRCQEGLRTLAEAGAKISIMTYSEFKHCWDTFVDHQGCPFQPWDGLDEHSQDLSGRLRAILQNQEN

Target: Virion infectivity factor (Human immunodeficiency virus type 1 group M subtype B (isolate BH10)) + Virion infectivity factor (Human immunodeficiency virus type 1 group M subtype B (isolate BRU/LAI)) + Virion infectivity factor (Human immunodeficiency virus type 1 group M subtype B (isolate PCV12)) + Virion infectivity factor (Human immunodeficiency virus type 1 group M subtype B (isolate HXB2)) + DNA dC->dU-editing enzyme APOBEC-3G (Homo sapiens) (UniProt P69720+P69721+P69722+P69723+Q9HC16)
Assay: inhibitors of Vif binding to APOBEC3G peptide, primary screen, biochemical, TR-FRET, GST-Vif 1-94, biotin-A3G peptide, dose response retest (AID 1117319);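 also: Vif residues 1-94 fused to GST binding biotinylated APOBEC3G peptide 110-148; 0% = full assay without inhibitor and 100% = GST in place of GST-Vif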
Details: active compounds read high

**Q.** Which inhibition does the source give for `Cc1c(Cl)cccc1NC(=O)NCc1ccncc1` here?
**A.** inconclusive: 33.5%

**Q.** For `O=C(O)c1cccc(NC(=O)c2ccc(S(=O)(=O)c3ccccc3)cc2)c1`, which inhibition is on record?
**A.** inconclusive: 53.2%

**Q.** How did the inhibition turn out when `Cc1oc(CC(C)C)c(CN2CCCC2)c1C(=O)O` was run?
**A.** inconclusive: 40%

**Q.** How did the inhibition turn out when `C=CCNC(=O)CN1CCC(n2c(C)nc3cc(C(F)(F)F)ccc32)CC1` was run?
**A.** inconclusive: 55.5%

**Q.** How did the inhibition turn out when `O=C(Nc1ccc(S(=O)(=O)N2CCCCC2)cc1)c1ccccc1Cl` was run?
**A.** inactive: 0.17%

**Q.** With `O=C(Nc1ccccc1F)Nc1cccc2ccc(O)cc12` as the compound, how does the inhibition read?
**A.** inconclusive: 62.9%

**Q.** `CC(=O)Nc1ccc2c3c(ccc([N+](=O)[O-])c13)CC2` was tested. Which inhibition did it give?
**A.** inactive: 1.46%

**Q.** `Cc1ccc(CN2C(=O)N/C(=C/c3ccc(-c4ccc(C(=O)O)cc4)o3)C2=O)cc1` was tested. Which inhibition did it give?
**A.** inconclusive: 63.8%

**Q.** `O=C(CSc1ccc2c(c1)OCCO2)NCc1ccccc1` was tested. Which inhibition did it give?
**A.** inconclusive: 52.3%

**Q.** Which inhibition does the source give for `O=C(O)c1nn(-c2ccccc2)ccc1=O` here?
**A.** inconclusive: 34.2%

**Q.** Which inhibition does the source give for `O=C(C1CCN(Cc2nc(-c3ccc(Cl)cc3)no2)CC1)N1CCOCC1` here?
**A.** inconclusive: 48.3%

**Q.** How did the inhibition turn out when `COC(=O)CN1C(=O)C2(OCCCO2)c2cc(Br)ccc21` was run?
**A.** inactive: -2.05% and inactive: -8.37%

**Q.** How did the inhibition turn out when `Brc1ccc(-c2csc3ncnc(-n4nnc5ccccc54)c23)cc1` was run?
**A.** inconclusive: 43.9%

**Q.** For `COc1ccc(/C=C2/SC(=O)N(NS(=O)(=O)c3ccccc3)C2=S)cc1OC`, which inhibition is on record?
**A.** inconclusive: 48.5%

**Q.** With `O=C(NNC(=O)c1cc(-c2ccco2)nc2ccccc12)c1ccccc1` as the compound, how does the inhibition read?
**A.** inactive: 14%

**Q.** How did the inhibition turn out when `O=S(=O)(Nc1ccc2c(c1)OCCO2)c1ccc2oc3ccccc3c2c1` was run?
**A.** inactive: -4.26%

**Q.** How did the inhibition turn out when `COc1coc(C(O)CN)cc1=O` (stereo not given) was run?
**A.** inconclusive: 42.8%

**Q.** For `CN(C)S(=O)(=O)Oc1ccsc1C(=O)Nc1ccc(Cl)cc1`, which inhibition is on record?
**A.** inconclusive: 48.8%

**Q.** How did the inhibition turn out when `COC(=O)NCC(c1cccnc1)N1CCOCC1` (stereo not given) was run?
**A.** inconclusive: 39%

**Q.** `Cc1nnsc1C(=O)N1CCC(CO)(Cc2ccccc2Cl)CC1` was tested. Which inhibition did it give?
**A.** inconclusive: 45.4%

**Q.** With `Cn1c2c(c(=O)n(C)c1=O)C(c1cc3c(cc1Br)OCO3)CC(=O)N2` (stereo not given) as the compound, how does the inhibition read?
**A.** inconclusive: 33.5%

**Q.** `Cc1cccnc1NC(=O)CCNS(=O)(=O)c1ccc2c(c1)c(=O)n(C)c(=O)n2C` was tested. Which inhibition did it give?
**A.** inconclusive: 36.7%

**Q.** For `O=C(NCC1CCCO1)c1ccc2c(c1)ncn2-c1cccc(F)c1` (stereo not given), which inhibition is on record?
**A.** inconclusive: 48.7%

**Q.** `COc1cc(CNC2CCCC2)c(Br)cc1OC1CCCC1` was tested. Which inhibition did it give?
**A.** inconclusive: 55.3%

**Q.** With `CCNc1nc2c(c(=O)[nH]c(=O)n2C)n1Cc1ccc(F)cc1` as the compound, how does the inhibition read?
**A.** inconclusive: 35.8%

**Q.** For `COc1ccc(/C=C/C(=O)C2C(=O)C=C(C)OC2=O)cc1O` (stereo not given), which inhibition is on record?
**A.** inconclusive: 39.6%

**Q.** How did the inhibition turn out when `CCOc1ccc(C(=O)Nc2ccc3c(c2)OCCO3)cc1[N+](=O)[O-]` was run?
**A.** inconclusive: 37.6%

**Q.** With `Cc1nn(C(=O)CNC(=O)c2ccccc2)c(C)c1C` as the compound, how does the inhibition read?
**A.** inconclusive: 60.3%

**Q.** `Cc1cc(NC(=O)C2COc3ccccc3O2)no1` (stereo not given) was tested. Which inhibition did it give?
**A.** inconclusive: 48.4%

**Q.** How did the inhibition turn out when `O=c1[nH]c(C2CCCN(S(=O)(=O)c3ccc(F)cc3)C2)nc2c1nnn2Cc1ccccc1` (stereo not given) was run?
**A.** inconclusive: 28.9%

**Q.** How did the inhibition turn out when `Cc1cccc(CC2CC(=O)N(c3ccccc3)C2=O)c1` (stereo not given) was run?
**A.** inconclusive: 9.2%

**Q.** For `COC(=O)c1cc(NC(=O)c2cc(-c3ccc(Cl)cc3)oc2C(F)(F)F)ccc1N1CCOCC1`, which inhibition is on record?
**A.** inactive: -11.7%

**Q.** With `O=C(Nc1ccccc1N1CCCCC1)c1cccc([N+](=O)[O-])c1` as the compound, how does the inhibition read?
**A.** inconclusive: 34.3%

**Q.** With `Cc1cccc(-c2n[nH]c(=S)n2/N=C/C=C/c2ccco2)c1` as the compound, how does the inhibition read?
**A.** inconclusive: 56.2%

**Q.** How did the inhibition turn out when `COC(=O)[C@H]1C[C@@H]1[C@H](NC(=O)OCc1ccccc1)c1ccccc1` was run?
**A.** inactive: -8.43%

**Q.** How did the inhibition turn out when `O=C(O)c1ccc2[nH]c3c(c2c1)CSCC3` was run?
**A.** inconclusive: 33.6%

**Q.** How did the inhibition turn out when `COc1ccccc1NC(=O)N(Cc1ccco1)Cc1cc2c(C)ccc(C)c2[nH]c1=O` was run?
**A.** inconclusive: 51.8%

**Q.** For `Nc1ccc2cn[nH]c2c1`, which inhibition is on record?
**A.** inconclusive: 46.9%

**Q.** For `OC(COc1cccc2ccccc12)CN1CCN(c2ccc(Cl)cc2)CC1` (stereo not given), which inhibition is on record?
**A.** inconclusive: 36.8%

**Q.** For `O=C(Cn1nc(-c2ccccc2F)ccc1=O)Nc1ccc(S(=O)(=O)N2CCCCCC2)cc1`, which inhibition is on record?
**A.** inconclusive: 41.3%

**Q.** For `CC(C)C(=O)Nc1nnc(CCN2CCCCC2)s1`, which inhibition is on record?
**A.** inconclusive: 49.4%

**Q.** How did the inhibition turn out when `O=C(Nc1ccc(Cl)cc1)N(C1=NCCC1)c1ccc(OC(F)F)cc1` was run?
**A.** inconclusive: 45.5%

**Q.** Which inhibition does the source give for `COCCN(C(=O)CNC(=O)c1ccco1)C(C(=O)NC1CCCC1)c1cccs1` (stereo not given) here?
**A.** inconclusive: 42.5%

**Q.** Which inhibition does the source give for `CC12CN3CC(C)(CN(C1)C3c1ccc(Cl)cc1)C2` (stereo not given) here?
**A.** inconclusive: 55.8%

**Q.** `CCc1ccccc1NC(=O)CN(C)C(=O)Cn1cc(C(F)(F)F)cc(Cl)c1=O` was tested. Which inhibition did it give?
**A.** inconclusive: 58.4%
